# Data taken from PubChem BioAssay AID2685 (National Center for Advancing Translational Sciences (NCATS), 2010).
# Some of the results follow. Further columns of the screen follow, without active or inactive calls. Compounds called inactive in the main read-out are mostly missing here. Potencies come from curve fits of mixed quality, noted in brackets.
# Assay: qHTS Assay for Lipid Storage Modulators in Drosophila S3 Cells;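 for cell number change: cells counted by Cell Tracker Red CMTPX staining in the red channel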
# Settings: BODIPY lipid droplet fluorescence, 18-24 h; for cell number change: measured here: cell count max response, cells fed with added oleic acid
# Summary of the method: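 Laser-scanning cytometry quantifies lipid droplet accumulation (500–530 nm total intensity; droplet/cell object ratio) in oleic acid-fed (400 uM added) Drosophila S3 cells treated with a concentration series. 20 uM Triacsin C defined 100% inhibition.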
# [1] = measured here: lipid fluorescence (Fed channel) AC50, cells fed with added oleic acid
# [2] = measured here: cell number channel AC50, cells fed with added oleic acid
SMILES,cell number change [%],AC50 [1],AC50 [2]
O=C(Nc1cc([N+](=O)[O-])ccc1Cl)C(Sc1ccccc1)c1ccccc1 (stereo unspecified),-0.994,"1.64 µM [rising, partial curve, poor fit]",–
COc1ccc(C(=O)N2CCN=C2SC)cc1OC,0.304,"0.366 µM [falling, partial curve]",–
CCOCCCNC(=O)Cc1ccc(-n2c(CC)nc3cccnc32)cc1,-27.9,–,"4.11 µM [falling, full curve, poor fit]"
O=C(COC(=O)c1ccccc1O)Nc1cccc(S(=O)(=O)N2CCCC2)c1,–,"3.66 µM [falling, partial curve]",–
CCC(C)NC(=O)CCn1c(=O)c2cccn2c2ccc(F)cc21 (stereo unspecified),-13.5,–,"0.0651 µM [rising, partial curve, poor fit]"
CCCCN1CCc2c([nH]c3ccc(C)cc23)C1=O,-32.4,"5.17 µM [falling, full curve, poor fit]",–
Cc1nn(C)c(C)c1S(=O)(=O)N1CCCC(C(=O)N2CCN(c3ccc(Cl)cc3)CC2)C1 (stereo unspecified),–,"29.1 µM [falling, single point]",–
COCO/C=C(\NC(C)=O)c1ccccc1,18,"18.4 µM [rising, single point]",–
Cc1ccc(NC(=O)C2CCN(C(=O)c3cccs3)CC2)cc1,10.9,–,–
Cc1nc(C(=O)NCCC(C)C)sc1C1(C)CC(c2ccccc2)=NO1 (stereo unspecified),5.07,"1.64 µM [rising, partial curve, poor fit]",–
O=C1/C(=C/c2ccc3c(c2)OCO3)CCC/C1=C\c1ccc2c(c1)OCO2,22.7,"0.0231 µM [rising, full curve, poor fit]",–
Cc1cc(=O)[nH]c2c1c(C)nn2-c1ccccc1,–,"0.184 µM [rising, full curve, poor fit]","4.11 µM [falling, single point]"
Cc1cc(C)c(C#N)c(SCCS(=O)(=O)Cc2ccc(Cl)cc2)n1,-10,–,–
CCN(CC)S(=O)(=O)c1ccc(N2CCOCC2)c(NC(=O)c2cccc(C#N)c2)c1,–,–,"0.13 µM [rising, full curve]"
O=C(OCC(=O)N1CCOCC1)c1ccc(O)cc1,-7.69,–,–
CC(C)NC(=O)c1nc2c(nnn2Cc2cccc(Cl)c2)c(=O)[nH]1,-1.72,–,–
CN(C)c1cccc(C(=O)NNC(=O)/C=C/c2cccs2)c1,-23.9,–,"0.651 µM [falling, full curve, poor fit]"
CCn1c(/C=C/Nc2ccccc2)[n+](CC)c2ccc(Cl)cc21,-7.58,"16.4 µM [rising, partial curve]",–
Cc1ccc(C)c(C(=O)CCC(=O)NCc2ccc(Cl)cc2)c1,-15.4,"2.06 µM [falling, partial curve]","4.61 µM [falling, single point]"
O=C(CC1c2ccccc2Oc2ccccc21)Nc1ccccc1C(F)(F)F,–,–,"6.51 µM [rising, single point]"
Cc1ccc(C(=O)NCCNC(=O)CN2CCCC2)cc1,-18.8,"4.11 µM [falling, full curve]",–
O=C(Nc1ccc(N2CCCCC2)cc1)c1ccccc1,57,–,–

SMILES,cell number change [%],AC50 [1],AC50 [2]
CC(=O)NC(Cc1ccc(F)c(F)c1)C(=O)NC1CCN(C(=O)c2ccc(Cl)cc2)CC1 (stereo unspecified),5.56,–,–
S=c1[nH]nc(-c2ccncc2)n1/N=C/c1cn(-c2ccccc2)nc1-c1ccccc1,-39.5,"23.1 µM [falling, single point]","29.1 µM [falling, single point]"
CCOc1ccc(CCNC(=O)c2nn(C)c3c2CS(=O)(=O)c2ccccc2-3)cc1,14,–,–
Cc1c(C(=O)NN)sc(=S)n1C,9.47,–,–
CN(Cc1cccnc1)Cc1cn(Cc2ccccc2)nc1-c1ccc2c(c1)OCO2,18.3,"0.184 µM [rising, full curve, poor fit]",–
COC(=O)c1ccc(SCc2cnc(Cl)s2)cc1,48.3,–,–
CS(=O)(=O)Nc1ccc(-c2cn3cccnc3n2)cc1,-7.96,"0.116 µM [rising, full curve, poor fit]",–
CC(C)(C)C(=O)NC(=S)Nc1cc(C(=O)O)ccc1Cl,3.23,–,–
Cc1cc(NC(=O)CSc2ccc(-c3ccc4c(c3)OCO4)nn2)no1,–,–,"1.3 µM [falling, full curve]"
COc1cc2c(cc1OC)CN(CC(=O)Nc1ccccc1C(=O)NCc1ccccc1)CC2,-31.4,–,"2.06 µM [falling, partial curve, poor fit]"
COc1ccc(OC)c2c1sc(=NC(=O)C1CC1)n2C,13.6,"7.31 µM [rising, partial curve]",–
COc1ccccc1NC(=O)NCC1(N(C)C)CCCCC1,–,"1.12 µM [falling, full curve, poor fit]",–
COc1ccc2c(C)cc(SCC(=O)Nc3nsc(-c4ccc(C)cc4)n3)nc2c1,-28.8,"29.1 µM [falling, single point]",–
Cn1c(=O)c2c(nc(CN3CCc4ccccc4C3)n2Cc2ccccc2F)n(C)c1=O,–,"2.59 µM [rising, partial curve]",–
O=C(Nc1ccccc1)C1CCCN1S(=O)(=O)c1ccc(Br)cc1 (stereo unspecified),13.9,–,–
COc1ccc(/C(C)=N/OC/C(O)=C(\C#N)c2nc3ccccc3[nH]2)cc1OC,23.4,"0.731 µM [rising, full curve, poor fit]",–
Cn1cccc1-c1nc2ccc(NC(=O)c3ccco3)cc2[nH]1,17.5,–,"0.517 µM [rising, full curve, poor fit]"
O=C(O)c1ccc(Nc2nc3ccccc3nc2NS(=O)(=O)c2ccc(F)cc2)cc1,-2.75,"0.517 µM [falling, full curve, poor fit]",–
COC(=O)c1cc(C(=O)OC)cc(-n2c(C)cc(C(=O)CC#N)c2C)c1,-25.1,"29.1 µM [falling, single point]",–
Cc1coc2cc3oc(=O)c(CCC(=O)NCC(=O)O)c(C)c3cc12,46.5,–,"5.8 µM [rising, full curve, poor fit]"
Cc1cc(Nc2ccccc2)n(C(=O)c2ccccc2)n1,34.3,"6.51 µM [falling, single point]","11.6 µM [rising, partial curve]"

# Quoted from the listing:
# AC50 [2], COc1cc2c(cc1OC)CN(CC(=O)Nc1ccccc1C(=O)NCc1ccccc1)CC2 is entered as 2.06 µM [falling, partial curve, poor fit]
# cell number change [%], CS(=O)(=O)Nc1ccc(-c2cn3cccnc3n2)cc1 is entered as -7.96
